In this assay the test system is HEK293A TEAD-LUC reporter. In words: TEAD-luciferase reporter activity (YAP activation), robust Z score vs plate; higher = stronger YAP/TEAD activation. The conditions noted are these: 24 h.

Structures can show the parent of a compound that is named as a salt. This is one part of the list. Repeats in this data set agree poorly, so a single value says little.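 The human kidney-derived cells carry a stably integrated construct of eight TEAD-binding elements driving luciferase, read by luminescence in a drug-repurposing library screen. A compound counts as a hit when its signal is more than five robust Z scores above the plate mean.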

Turning to `Cn1cc(C[C@@H](N)C(=O)O)c2ccccc21` [indoximod], the TEAD-luciferase reporter activity was inactive: 0.428 (compound concentration: 200 nM), inactive: -0.0181 (compound concentration: 2 uM) and inactive: 1.12 (compound concentration: 10 uM).

`Fc1ccc(C(c2ccc(F)cc2)N2CCN(C/C=C/c3ccccc3)CC2)cc1` [flunarizine]: the TEAD-luciferase reporter activity is inactive: -0.276 (compound concentration: 200 nM), inactive: -0.17 (compound concentration: 2 uM) and inactive: -0.155 (compound concentration: 10 uM).

As for `CC(=O)NCC(=O)O`, the TEAD-luciferase reporter activity is inactive: -1.58 (compound concentration: 200 nM), inactive: -1.33 (compound concentration: 2 uM) and inactive: -1.46 (compound concentration: 10 uM).

On to `CCCCCCCCCCCC(=O)NCCc1c[nH]c2ccc(OC)cc12`, for which the TEAD-luciferase reporter activity by setting is: (compound concentration: 200 nM) inactive: -0.0466; (compound concentration: 2 uM) inactive: 1.28; (compound concentration: 10 uM) inactive: 2.38.

As for `CC(C)(C)C(=O)CN1C(=O)[C@H](NC(=O)Nc2cccc(C(=O)O)c2)CN(C2CCCCC2)c2ccccc21`, the TEAD-luciferase reporter activity runs as follows: (compound concentration: 200 nM) inactive: 4.86; (compound concentration: 2 uM) inactive: -0.637; (compound concentration: 10 uM) inactive: -0.00217.

On to `O=C(Cc1ccc(-c2ccccc2)cc1)Nc1ccccn1` [difenpyramide], for which the TEAD-luciferase reporter activity is, setting by setting: (compound concentration: 200 nM) inactive: 0.936; (compound concentration: 2 uM) inactive: -0.0438; (compound concentration: 10 uM) inactive: -1.27.

In the case of `N#CCC1(n2cc(-c3ncnc4[nH]ccc34)cn2)CN(C2CCN(C(=O)c3ccnc(C(F)(F)F)c3F)CC2)C1` [Itacitinib], the TEAD-luciferase reporter activity is inactive: -0.329 (compound concentration: 200 nM), inactive: -0.672 (compound concentration: 2 uM) and inactive: -0.412 (compound concentration: 10 uM).

For the molecule `O=C1NC(c2ccccc2)(c2ccccc2)C(=O)N1COP(=O)([O-])[O-]` [fosphenytoin sodium], the TEAD-luciferase reporter activity is inactive: -1.46 (compound concentration: 200 nM), inactive: 0.225 (compound concentration: 2 uM) and inactive: -0.39 (compound concentration: 10 uM).

On to `Cc1nc2cnccc2n1-c1ccc(OCc2cccc(/C=C/c3nc4cc(F)ccc4s3)c2)cc1`, for which the TEAD-luciferase reporter activity was inactive: -1.03 (compound concentration: 200 nM), inactive: 0.191 (compound concentration: 2 uM) and active: 9.63 (compound concentration: 10 uM).

On to `CC(C)(C(=O)NCC(F)(F)C(F)(F)F)C(=O)N[C@@H]1C(=O)Nc2ccccc2-c2ccccc21`, for which the TEAD-luciferase reporter activity runs as follows: (compound concentration: 200 nM) inactive: -0.327; (compound concentration: 2 uM) inactive: -0.287; (compound concentration: 10 uM) inactive: 0.242.

For the molecule `CC(C)(C)c1ccc(CN(Cc2cccc(OCC(=O)O)c2)S(=O)(=O)c2cccnc2)cc1`, the TEAD-luciferase reporter activity is, setting by setting: (compound concentration: 200 nM) inactive: -1.22; (compound concentration: 2 uM) inactive: -1.52; (compound concentration: 10 uM) inactive: 0.0142.

Regarding `CN1N=C2CCN(C(=O)[C@H](COCc3ccccc3)NC(=O)C(C)(C)N)CC2(Cc2ccccc2)C1=O` (stereo not given in full), the TEAD-luciferase reporter activity (compound concentration: 200 nM) is inactive: -0.758, the TEAD-luciferase reporter activity (compound concentration: 2 uM) was inactive: 0.0613 and the TEAD-luciferase reporter activity (compound concentration: 10 uM) is inactive: 0.106.

With `Cn1nccc1Nc1nccc(-c2ccn([C@H](CO)c3ccc(Cl)c(F)c3)c(=O)c2)n1`, the TEAD-luciferase reporter activity is inactive: -0.37 (compound concentration: 200 nM), inactive: -2 (compound concentration: 2 uM) and inactive: -2.57 (compound concentration: 10 uM).

For the molecule `O=C(O)CNC(=O)c1ncc(-c2cccc(Cl)c2)cc1O` [Vadadustat], the TEAD-luciferase reporter activity is, setting by setting: (compound concentration: 200 nM) inactive: 0.296; (compound concentration: 2 uM) inactive: -0.474; (compound concentration: 10 uM) inactive: -0.97.

With `CN(C)c1nc2ccc(-n3cnc4cc(-c5ccc(Cl)cc5)sc4c3=O)cc2n1C`, the TEAD-luciferase reporter activity by setting is: (compound concentration: 200 nM) inactive: -0.403; (compound concentration: 2 uM) inactive: -1.57; (compound concentration: 10 uM) inactive: 1.08.

Take `CC(=O)N1C[C@H](O)C[C@H]1C(=O)N[C@@H](CCCNC(=N)N)C(=O)c1nc2ccccc2s1`: the TEAD-luciferase reporter activity runs as follows: (compound concentration: 200 nM) inactive: 0.766; (compound concentration: 2 uM) inactive: -0.581; (compound concentration: 10 uM) inactive: -1.16.

With `CC(=O)Nc1ccc(CN(C)Cc2ccc(-c3ccccc3)cc2)cc1`, the TEAD-luciferase reporter activity reads like this: (compound concentration: 200 nM) inactive: 0.446; (compound concentration: 10 uM) inactive: -0.7.

As for `COc1cc(S(C)(=O)=O)ccc1Nc1nc2cc(-c3ccc(NC(=O)C(C)c4ccc(F)cc4)cc3)ccn2n1` (stereo not given), the TEAD-luciferase reporter activity by setting is: (compound concentration: 200 nM) inactive: -1.08; (compound concentration: 2 uM) inactive: 1.35; (compound concentration: 10 uM) active: 9.18.

Take `O=C(O)CCCN1CCC[C@@H]1COc1ccc(Oc2ccc(Cl)cc2)cc1`: the TEAD-luciferase reporter activity (compound concentration: 200 nM) is inactive: 1.86, the TEAD-luciferase reporter activity (compound concentration: 2 uM) was inactive: 0.178 and the TEAD-luciferase reporter activity (compound concentration: 10 uM) was inactive: 1.23.

For the molecule `CC12CCC(C(=O)N(CCCCN3CCN(c4ccccn4)CC3)C1=O)C2(C)C` (stereo not given) [Piricapiron], the TEAD-luciferase reporter activity (compound concentration: 200 nM) is inactive: -0.613, the TEAD-luciferase reporter activity (compound concentration: 2 uM) is inactive: -1.56 and the TEAD-luciferase reporter activity (compound concentration: 10 uM) is inactive: 2.15.

On to `COc1ccc(OC2CN(Cc3ccccc3)C2)cc1`, for which the TEAD-luciferase reporter activity runs as follows: (compound concentration: 200 nM) inactive: -0.476; (compound concentration: 10 uM) inactive: 1.59.

As to `N=C(N)c1ccc(O)c(CN2CCC(NS(=O)(=O)c3ccc(-c4cccnc4)s3)C2=O)c1` (stereo not given), the TEAD-luciferase reporter activity was inactive: -0.945 (compound concentration: 200 nM), inactive: -0.134 (compound concentration: 2 uM) and inactive: 1.19 (compound concentration: 10 uM).

As to `CCCCCCNC(=O)NC(=N)NCCCN1CCN(CCCNC(=N)NC(=O)NCCCCCC)CC1`, for the setting “compound concentration: 2 uM”, the TEAD-luciferase reporter activity is inactive: -0.882.

With `CCCCCCNC(=O)NC(=N)NCCCN1CCN(CCCNC(=N)NC(=O)NCCCCCC)CC1` [Ipexidine], the TEAD-luciferase reporter activity is inactive: -0.587 (compound concentration: 200 nM) and inactive: 0.635 (compound concentration: 10 uM).

For the molecule `Cc1cc2ncc(C(=O)NC3CCCCC3C)cn2n1` (stereo not given), the TEAD-luciferase reporter activity (compound concentration: 200 nM) is inactive: -0.638 and the TEAD-luciferase reporter activity (compound concentration: 10 uM) is inactive: -1.01.

Turning to `[Li+]` [Lithium citrate], the TEAD-luciferase reporter activity is, setting by setting: (compound concentration: 200 nM) inactive: -0.656; (compound concentration: 2 uM) inactive: 0.0248; (compound concentration: 10 uM) inactive: -0.094.

With `COc1cc2c(CCNC(C)=O)c[nH]c2cc1Cl`, the TEAD-luciferase reporter activity was inactive: -0.201 (compound concentration: 200 nM), inactive: 1.61 (compound concentration: 2 uM) and inactive: 1.62 (compound concentration: 10 uM).

For the origin of these results see the supplement of paper PMC10735217.
